Results taken from publication PMC11914185.

By UniProt entry, the sequences of proteins in these tests, tags left out.
UniProt Q9HCK8: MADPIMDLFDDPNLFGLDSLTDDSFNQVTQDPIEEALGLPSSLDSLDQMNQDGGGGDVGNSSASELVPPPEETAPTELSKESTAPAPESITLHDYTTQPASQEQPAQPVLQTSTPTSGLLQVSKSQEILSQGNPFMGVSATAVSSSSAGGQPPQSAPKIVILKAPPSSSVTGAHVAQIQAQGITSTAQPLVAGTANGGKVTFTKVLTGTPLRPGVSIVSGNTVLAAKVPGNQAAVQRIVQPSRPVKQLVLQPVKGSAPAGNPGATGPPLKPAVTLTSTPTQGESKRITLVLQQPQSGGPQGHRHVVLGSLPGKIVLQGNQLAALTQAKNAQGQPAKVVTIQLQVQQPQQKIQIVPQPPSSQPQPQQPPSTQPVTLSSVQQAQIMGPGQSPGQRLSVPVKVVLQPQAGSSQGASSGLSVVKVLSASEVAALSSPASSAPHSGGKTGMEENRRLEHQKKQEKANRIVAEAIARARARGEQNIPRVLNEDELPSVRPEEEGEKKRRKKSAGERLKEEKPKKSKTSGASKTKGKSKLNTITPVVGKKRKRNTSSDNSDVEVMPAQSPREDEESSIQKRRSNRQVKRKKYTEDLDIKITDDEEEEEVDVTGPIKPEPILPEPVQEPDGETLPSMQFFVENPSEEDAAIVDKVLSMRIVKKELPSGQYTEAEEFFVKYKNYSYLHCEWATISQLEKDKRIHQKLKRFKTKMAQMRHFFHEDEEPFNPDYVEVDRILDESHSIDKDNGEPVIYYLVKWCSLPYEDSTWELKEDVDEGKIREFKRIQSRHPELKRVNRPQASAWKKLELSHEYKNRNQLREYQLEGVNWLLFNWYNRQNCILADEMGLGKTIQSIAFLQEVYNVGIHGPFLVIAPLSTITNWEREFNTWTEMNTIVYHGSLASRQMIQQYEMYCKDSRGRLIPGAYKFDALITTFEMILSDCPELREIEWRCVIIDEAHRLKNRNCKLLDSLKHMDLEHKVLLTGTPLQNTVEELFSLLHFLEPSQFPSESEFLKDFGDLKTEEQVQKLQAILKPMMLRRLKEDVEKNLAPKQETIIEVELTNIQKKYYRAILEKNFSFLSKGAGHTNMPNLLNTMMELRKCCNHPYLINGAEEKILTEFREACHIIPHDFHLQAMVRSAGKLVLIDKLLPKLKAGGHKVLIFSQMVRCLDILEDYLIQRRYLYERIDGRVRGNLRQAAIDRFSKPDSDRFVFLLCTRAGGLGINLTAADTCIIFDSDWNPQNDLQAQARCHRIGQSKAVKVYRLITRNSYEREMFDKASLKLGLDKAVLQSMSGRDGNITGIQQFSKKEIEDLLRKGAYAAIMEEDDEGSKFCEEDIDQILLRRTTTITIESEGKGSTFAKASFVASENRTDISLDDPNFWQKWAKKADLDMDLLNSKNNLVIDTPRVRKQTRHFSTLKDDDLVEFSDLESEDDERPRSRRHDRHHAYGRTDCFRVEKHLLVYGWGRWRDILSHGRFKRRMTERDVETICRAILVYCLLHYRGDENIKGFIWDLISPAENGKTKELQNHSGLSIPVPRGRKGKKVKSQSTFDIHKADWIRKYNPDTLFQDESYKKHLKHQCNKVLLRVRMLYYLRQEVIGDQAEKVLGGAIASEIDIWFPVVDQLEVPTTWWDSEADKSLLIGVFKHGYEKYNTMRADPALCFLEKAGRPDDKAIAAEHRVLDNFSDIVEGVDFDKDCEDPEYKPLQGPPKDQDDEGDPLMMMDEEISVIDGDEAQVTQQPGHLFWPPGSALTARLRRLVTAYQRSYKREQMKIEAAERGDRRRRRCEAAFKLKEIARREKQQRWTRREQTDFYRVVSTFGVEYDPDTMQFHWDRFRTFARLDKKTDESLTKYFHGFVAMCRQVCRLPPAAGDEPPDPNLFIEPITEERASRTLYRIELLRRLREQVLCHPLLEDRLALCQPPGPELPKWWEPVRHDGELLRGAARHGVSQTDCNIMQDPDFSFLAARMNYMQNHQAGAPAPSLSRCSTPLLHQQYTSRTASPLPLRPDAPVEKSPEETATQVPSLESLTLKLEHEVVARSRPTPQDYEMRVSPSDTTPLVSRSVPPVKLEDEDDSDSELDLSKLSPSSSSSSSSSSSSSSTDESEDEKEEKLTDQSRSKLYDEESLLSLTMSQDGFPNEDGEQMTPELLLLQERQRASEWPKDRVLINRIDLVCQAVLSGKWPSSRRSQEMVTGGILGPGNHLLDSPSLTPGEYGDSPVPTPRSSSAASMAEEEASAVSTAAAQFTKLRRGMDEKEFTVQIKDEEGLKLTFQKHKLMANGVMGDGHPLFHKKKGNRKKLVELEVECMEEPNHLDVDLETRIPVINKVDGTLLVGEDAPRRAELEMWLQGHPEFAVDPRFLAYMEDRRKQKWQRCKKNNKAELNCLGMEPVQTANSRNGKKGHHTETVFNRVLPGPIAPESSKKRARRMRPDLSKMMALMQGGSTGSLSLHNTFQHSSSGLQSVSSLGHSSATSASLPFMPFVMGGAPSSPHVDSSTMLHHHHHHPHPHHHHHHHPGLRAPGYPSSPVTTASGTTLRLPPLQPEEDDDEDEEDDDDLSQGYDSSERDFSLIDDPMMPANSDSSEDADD
UniProt Q9NPF5: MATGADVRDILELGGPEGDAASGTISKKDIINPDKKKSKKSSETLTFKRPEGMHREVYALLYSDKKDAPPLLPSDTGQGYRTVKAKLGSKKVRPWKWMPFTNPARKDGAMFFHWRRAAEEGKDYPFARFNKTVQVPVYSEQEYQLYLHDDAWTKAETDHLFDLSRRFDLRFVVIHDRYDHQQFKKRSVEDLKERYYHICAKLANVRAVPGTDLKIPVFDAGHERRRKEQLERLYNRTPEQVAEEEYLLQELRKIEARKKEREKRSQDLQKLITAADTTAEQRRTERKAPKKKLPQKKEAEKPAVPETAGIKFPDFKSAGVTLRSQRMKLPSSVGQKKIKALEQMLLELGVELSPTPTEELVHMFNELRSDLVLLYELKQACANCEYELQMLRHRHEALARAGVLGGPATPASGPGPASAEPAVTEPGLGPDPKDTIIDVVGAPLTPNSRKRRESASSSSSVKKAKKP
UniProt Q9UBU8: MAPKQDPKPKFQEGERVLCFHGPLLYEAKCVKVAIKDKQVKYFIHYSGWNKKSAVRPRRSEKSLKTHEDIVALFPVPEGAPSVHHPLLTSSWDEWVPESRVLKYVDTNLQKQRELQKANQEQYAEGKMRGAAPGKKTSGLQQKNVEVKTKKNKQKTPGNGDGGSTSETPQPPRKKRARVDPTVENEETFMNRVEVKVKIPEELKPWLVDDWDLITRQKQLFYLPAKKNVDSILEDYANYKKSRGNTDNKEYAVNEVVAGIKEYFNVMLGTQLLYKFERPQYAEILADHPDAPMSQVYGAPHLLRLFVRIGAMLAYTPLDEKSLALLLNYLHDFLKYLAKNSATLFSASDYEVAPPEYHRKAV
UniProt O95619: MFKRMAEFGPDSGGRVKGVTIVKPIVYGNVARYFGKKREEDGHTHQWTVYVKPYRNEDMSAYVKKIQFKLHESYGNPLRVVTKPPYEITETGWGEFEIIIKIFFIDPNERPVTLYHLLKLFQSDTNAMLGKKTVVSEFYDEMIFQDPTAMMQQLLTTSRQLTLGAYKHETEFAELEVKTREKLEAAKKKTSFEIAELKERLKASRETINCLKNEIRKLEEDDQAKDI
UniProt Q92993: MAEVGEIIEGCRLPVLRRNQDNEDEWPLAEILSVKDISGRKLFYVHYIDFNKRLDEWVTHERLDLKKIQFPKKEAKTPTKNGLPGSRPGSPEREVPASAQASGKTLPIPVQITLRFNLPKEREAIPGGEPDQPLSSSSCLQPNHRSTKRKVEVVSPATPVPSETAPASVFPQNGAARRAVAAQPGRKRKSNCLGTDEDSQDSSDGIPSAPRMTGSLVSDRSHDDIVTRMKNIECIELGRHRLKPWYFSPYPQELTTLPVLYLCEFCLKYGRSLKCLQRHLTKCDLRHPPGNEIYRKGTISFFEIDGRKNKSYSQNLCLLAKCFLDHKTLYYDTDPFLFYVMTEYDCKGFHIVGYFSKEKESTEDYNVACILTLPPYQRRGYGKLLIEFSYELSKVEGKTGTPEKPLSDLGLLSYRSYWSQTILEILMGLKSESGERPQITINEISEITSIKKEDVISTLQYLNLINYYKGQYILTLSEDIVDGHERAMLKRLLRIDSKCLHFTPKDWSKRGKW
UniProt Q05BQ5: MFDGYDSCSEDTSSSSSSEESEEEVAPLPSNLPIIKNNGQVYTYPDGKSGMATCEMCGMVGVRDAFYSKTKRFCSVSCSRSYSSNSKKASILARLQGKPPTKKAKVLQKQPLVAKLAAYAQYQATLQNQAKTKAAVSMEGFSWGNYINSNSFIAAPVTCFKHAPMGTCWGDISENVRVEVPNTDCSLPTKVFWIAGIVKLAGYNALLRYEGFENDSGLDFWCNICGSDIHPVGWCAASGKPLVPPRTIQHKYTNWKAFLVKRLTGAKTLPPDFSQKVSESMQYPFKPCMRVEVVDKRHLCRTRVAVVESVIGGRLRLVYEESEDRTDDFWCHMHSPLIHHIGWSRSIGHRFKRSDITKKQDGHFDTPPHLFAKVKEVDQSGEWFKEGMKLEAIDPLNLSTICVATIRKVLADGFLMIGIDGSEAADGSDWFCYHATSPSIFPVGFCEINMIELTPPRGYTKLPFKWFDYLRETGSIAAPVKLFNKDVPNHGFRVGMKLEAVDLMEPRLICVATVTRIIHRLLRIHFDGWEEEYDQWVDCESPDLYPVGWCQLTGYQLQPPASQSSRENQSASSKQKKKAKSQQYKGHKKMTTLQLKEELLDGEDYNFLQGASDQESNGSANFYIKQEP
UniProt Q9NXR8: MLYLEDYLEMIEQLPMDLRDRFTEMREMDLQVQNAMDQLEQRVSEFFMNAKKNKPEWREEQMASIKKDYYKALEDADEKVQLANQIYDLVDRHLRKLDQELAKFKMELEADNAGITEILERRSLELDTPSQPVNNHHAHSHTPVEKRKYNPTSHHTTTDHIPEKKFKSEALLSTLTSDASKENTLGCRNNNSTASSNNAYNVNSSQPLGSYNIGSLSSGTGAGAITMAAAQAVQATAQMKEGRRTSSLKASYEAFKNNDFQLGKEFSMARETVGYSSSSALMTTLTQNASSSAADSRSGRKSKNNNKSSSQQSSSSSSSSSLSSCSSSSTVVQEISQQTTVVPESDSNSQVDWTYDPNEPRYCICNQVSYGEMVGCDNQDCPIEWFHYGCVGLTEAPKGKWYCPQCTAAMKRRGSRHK
UniProt Q9Y265: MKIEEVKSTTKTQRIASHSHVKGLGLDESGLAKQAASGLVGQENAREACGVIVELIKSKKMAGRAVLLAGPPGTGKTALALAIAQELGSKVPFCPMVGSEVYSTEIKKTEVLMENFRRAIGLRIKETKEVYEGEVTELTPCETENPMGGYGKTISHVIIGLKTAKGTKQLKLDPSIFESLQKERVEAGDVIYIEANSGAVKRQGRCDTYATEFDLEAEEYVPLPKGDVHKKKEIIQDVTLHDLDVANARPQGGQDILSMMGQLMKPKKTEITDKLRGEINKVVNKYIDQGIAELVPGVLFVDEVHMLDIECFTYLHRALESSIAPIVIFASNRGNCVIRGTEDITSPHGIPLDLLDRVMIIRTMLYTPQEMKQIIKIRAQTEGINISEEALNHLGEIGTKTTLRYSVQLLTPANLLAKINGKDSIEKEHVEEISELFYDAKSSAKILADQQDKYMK
UniProt Q9H2F5: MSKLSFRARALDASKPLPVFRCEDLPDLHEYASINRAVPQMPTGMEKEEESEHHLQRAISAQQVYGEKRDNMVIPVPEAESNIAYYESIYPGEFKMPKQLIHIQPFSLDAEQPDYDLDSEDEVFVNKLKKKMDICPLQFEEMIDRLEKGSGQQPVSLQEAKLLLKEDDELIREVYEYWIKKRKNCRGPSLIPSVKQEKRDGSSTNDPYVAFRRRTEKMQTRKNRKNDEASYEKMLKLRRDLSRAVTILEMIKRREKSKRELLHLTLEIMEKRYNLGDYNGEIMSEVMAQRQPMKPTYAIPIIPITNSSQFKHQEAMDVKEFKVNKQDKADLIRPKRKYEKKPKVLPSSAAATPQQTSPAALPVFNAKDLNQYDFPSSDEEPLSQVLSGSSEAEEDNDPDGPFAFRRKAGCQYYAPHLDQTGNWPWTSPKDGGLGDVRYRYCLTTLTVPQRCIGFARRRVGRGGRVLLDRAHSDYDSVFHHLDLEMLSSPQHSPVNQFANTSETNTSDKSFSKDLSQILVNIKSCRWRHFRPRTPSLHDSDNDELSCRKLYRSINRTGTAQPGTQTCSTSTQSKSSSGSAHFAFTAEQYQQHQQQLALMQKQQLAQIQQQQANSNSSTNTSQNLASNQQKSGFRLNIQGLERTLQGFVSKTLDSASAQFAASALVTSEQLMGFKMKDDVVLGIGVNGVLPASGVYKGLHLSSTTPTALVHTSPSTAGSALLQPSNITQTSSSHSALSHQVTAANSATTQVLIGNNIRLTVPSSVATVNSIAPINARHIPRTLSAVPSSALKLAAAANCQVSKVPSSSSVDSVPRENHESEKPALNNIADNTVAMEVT

B1: ZNF143 (protein, UniProt P52747 1-638)
chain: MLLAQINRDSQGMTEFPGGGMEAQHVTLCLTEAVTVADGDNLENMEGVSLQAVTLADGSTAYIQHNSKDAKLIDGQVIQLEDGSAAYVQHVPIPKSTGDSLRLEDGQAVQLEDGTTAFIHHTSKDSYDQSALQAVQLEDGTTAYIHHAVQVPQSDTILAIQADGTVAGLHTGDATIDPDTISALEQYAAKVSIDGSESVAGTGMIGENEQEKKMQIVLQGHATRVTAKSQQSGEKAFRCEYDGCGKLYTTAHHLKVHERSHTGDRPYQCEHAGCGKAFATGYGLKSHVRTHTGEKPYRCSEDNCTKSFKTSGDLQKHIRTHTGERPFKCPFEGCGRSFTTSNIRKVHVRTHTGERPYYCTEPGCGRAFASATNYKNHVRIHTGEKPYVCTVPGCDKRFTEYSSLYKHHVVHTHSKPYNCNHCGKTYKQISTLAMHKRTAHNDTEPIEEEQEAFFEPPPGQGEDVLKGSQITYVTGVEGDDVVSTQVATVTQSGLSQQVTLISQDGTQHVNISQADMQAIGNTITMVTQDGTPITVPAHDAVISSAGTHSVAMVTAEGTEGEQVAIVAQDLAAFHTASSEMGHQQHSHHLVTTETRPLTLVATSNGTQIAVQLGEQPSLEEAIRIASRIQQGETPGLDD

Each molecule was assayed against F-CHD8 (Chromodomain helicase DNA-binding protein 8 with a double FLAG tag and a V5 tag at the C-terminus, knocked into both alleles) (human (endogenous in hNSCs)) (UniProt Q9HCK8) (assay: affinity purification with mass spectrometry; anti-FLAG M2 agarose beads on 1.5 ml dialyzed nuclear extract of F-CHD8 hNSCs (control hNSCs as control), 3 h at 4°C with 225 units Benzonase, buffer C-100* (20 mM Hepes pH 7.6, 100 mM KCl, 0.02% NP40), eluted with FLAG-tripeptide; three independent purifications; MASCOT and MaxQuant analyses).

binding, binds:
BRD8 (from UniProt Q9H0E9 1-1235)
DMAP1 (from UniProt Q9NPF5 1-467)
CHD7 (from UniProt Q9P2D1 1-2997)
MYCBP2 (from UniProt O75592 1-4678)
MORF4L1 (from UniProt Q9UBU8 1-362)
TRRAP (from UniProt Q9Y4A5 1-3859)
YEATS4 (from UniProt O95619 1-227)
EP400 (from UniProt Q96L91 1-3159)
KAT5 (from UniProt Q92993 1-513)
MBTD1 (from UniProt Q05BQ5 1-628)
ING3 (from UniProt Q9NXR8 1-418)
RUVBL1 (from UniProt Q9Y265 1-456)
EPC2 (from UniProt Q52LR7 1-807)
EPC1 (from UniProt Q9H2F5 1-836)
B1

Results are given in words; binding and its absence hold for the method and conditions named. Binding seen in cells or lysates may run through a third protein. Here binding means that the protein was enriched with, or labelled near, the bait; the list need not be complete.
